Patent US20190169241A1 (BOARD OF TRUSTEES OF THE UNIVERSITY OF ILLINOIS, published 2019)

Biological target: FGFR
Experiment: pull-down with peptide on streptavidin beads, mass spec analysis

In the case of SRGTPVDERLFLIVRVTVQLSHP (biotin-tag (position not given)) [Biotin-DUF2C5 peptide (synthetic, residues 1238-1260 of KIF13B with a biotin-tag)], the binding is reported as “no binding”.

Results are given in words; binding and its absence hold for the method and conditions named. Binding seen in cells or lysates may run through a third protein. A yes stands for co-enrichment or nearness to the bait. Other partners may have been found. No binding means not detected with the bait. Tags and fused reporters may be left off the sequences shown.
